Data: US20230272392A1, “METHODS OF TFEB ACTIVATION AND LYSOSOMAL BIOGENESIS AND COMPOSITIONS THEREFOR” (Casma Therapeutics, Inc., priority 2020, published 2023)
Residue numbers refer to the chain shown, from its start. Names and notes keep the numbering of the source. No constants are given. Whether binding was seen depends on the method and setting. Binding seen in cells or lysates may run through a third protein. Some binding calls cover weakened binding; strength is not graded here. For part of these data: Where a sequence is shown, tags or fusion partners need not be part of it. One block for each molecule: values may come before it.

Sequences of proteins named here, by UniProt entry; tags and fusion partners are left off.
UniProt O95166: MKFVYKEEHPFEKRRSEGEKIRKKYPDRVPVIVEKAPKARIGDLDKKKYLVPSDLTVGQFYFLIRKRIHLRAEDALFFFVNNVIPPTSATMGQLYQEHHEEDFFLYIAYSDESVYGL

What was measured:
[1] = target: FLCN-FNIP1 complex (wild-type FNIP1) (human) (UniProt Q8NFG4+Q8TF40); assay: co-immunoprecipitation
[2] = target: T1, Human FLCN WT, C-terminal FLAG tag (human) (UniProt Q8NFG4); assay: co-immunoprecipitation
T1 sequence (looked up): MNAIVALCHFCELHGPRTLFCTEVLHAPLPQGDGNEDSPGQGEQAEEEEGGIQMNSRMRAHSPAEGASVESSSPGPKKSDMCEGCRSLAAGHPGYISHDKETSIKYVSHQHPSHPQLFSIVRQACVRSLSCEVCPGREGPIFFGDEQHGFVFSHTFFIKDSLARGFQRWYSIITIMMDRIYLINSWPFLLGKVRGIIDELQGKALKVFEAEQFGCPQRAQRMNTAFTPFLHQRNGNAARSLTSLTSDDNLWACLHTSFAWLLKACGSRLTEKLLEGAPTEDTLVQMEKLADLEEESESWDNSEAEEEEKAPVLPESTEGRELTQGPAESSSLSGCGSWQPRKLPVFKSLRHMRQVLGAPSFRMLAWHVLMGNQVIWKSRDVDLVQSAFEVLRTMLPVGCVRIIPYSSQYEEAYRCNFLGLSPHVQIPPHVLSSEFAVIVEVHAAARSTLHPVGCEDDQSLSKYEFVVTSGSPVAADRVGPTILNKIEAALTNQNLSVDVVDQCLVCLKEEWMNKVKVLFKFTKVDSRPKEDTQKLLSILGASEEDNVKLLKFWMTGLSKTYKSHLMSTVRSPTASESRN

- binding [1]: binds
Molecule: Human GABARAP WT, N-terminal myc tag (from UniProt O95166 1-117)

- binding [2]: binds
B1: Human FNIP1 Y583A/V586A, N-terminal 3X HA tag (protein, UniProt Q8TF40 1-1166, looked up, not shown: small tags and cut ends)
chain: MAPTLFQKLFSKRTGLGAPGRDARDPDCGFSWPLPEFDPSQIRLIVYQDCERRGRNVLFDSSVKRRNEDISVSKLGSDAQVKVFGKCCQLKPGGDSSSSLDSSVTSSSDIKDQCLKYQGSRCSSDANMLGEMMFGSVAMSYKGSTLKIHQIRSPPQLMLSKVFTARTGSSICGSLNTLQDSLEFINQDNNTLKADNNTVINGLLGNIGLSQFCSPRRAFSEQGPLRLIRSASFFAVHSNPMDMPGRELNEDRDSGIARSASLSSLLITPFPSPNSSLTRSCASSYQRRWRRSQTTSLENGVFPRWSIEESFNLSDESCGPNPGIVRKKKIAIGVIFSLSKDEDENNKFNEFFFSHFPLFESHMNKLKSAIEQAMKMSRRSADASQRSLAYNRIVDALNEFRTTICNLYTMPRIGEPVWLTMMSGTPEKNHLCYRFMKEFTFLMENASKNQFLPALITAVLTNHLAWVPTVMPNGQPPIKIFLEKHSSQSVDMLAKTHPYNPLWAQLGDLYGAIGSPVRLARTVVVGKRQDMVQRLLYFLTYFIRCSELQETHLLENGEDEAIVMPGTVITTTLEKGEIEESEAVLATMHRNKSSLLFKESEEIRTPNCNCKYCSHPLLGQNVENISQQEREDIQNSSKELLGISDECQMISPSDCQEENAVDVKQYRDKLRTCFDAKLETVVCTGSVPVDKCALSESGLESTEETWQSEKLLDSDSHTGKAMRSTGMVVEKKPPDKIVPASFSCEAAQTKVTFLIGDSMSPDSDTELRSQAVVDQITRHHTKPLKEERGAIDQHQETKQTTKDQSGESDTQNMVSEEPCELPCWNHSDPESMSLFDEYFNDDSIETRTIDDVPFKTSTDSKDHCCMLEFSKILCTKNNKQNNEFCKCIETVPQDSCKTCFPQQDQRDTLSILVPHGDKESSDKKIAVGTEWDIPRNESSDSALGDSESEDTGHDMTRQVSSYYGGEQEDWAEEDEIPFPGSKLIEVSAVQPNIANFGRSLLGGYCSSYVPDFVLQGIGSDERFRQCLMSDLSHAVQHPVLDEPIAEAVCIIADMDKWTVQVASSQRRVTDNKLGKEVLVSSLVSNLLHSTLQLYKHNLSPNFCVMHLEDRLQELYFKSKMLSEYLRGQMRVHVKELGVVLGIESSDLPLLAAVASTHSPYVAQILL

- binding [2]: binds
B2: Human FNIP1 WT, N-terminal 3X HA tag (protein, UniProt Q8TF40 1-1166, looked up, not shown: small tags and cut ends)
chain: B1 chain with A583Y, A586V
